# From publication PMC4760310
# Chains of the proteins cited; added tags and fusions are not shown.
# UniProt Q9VIF1: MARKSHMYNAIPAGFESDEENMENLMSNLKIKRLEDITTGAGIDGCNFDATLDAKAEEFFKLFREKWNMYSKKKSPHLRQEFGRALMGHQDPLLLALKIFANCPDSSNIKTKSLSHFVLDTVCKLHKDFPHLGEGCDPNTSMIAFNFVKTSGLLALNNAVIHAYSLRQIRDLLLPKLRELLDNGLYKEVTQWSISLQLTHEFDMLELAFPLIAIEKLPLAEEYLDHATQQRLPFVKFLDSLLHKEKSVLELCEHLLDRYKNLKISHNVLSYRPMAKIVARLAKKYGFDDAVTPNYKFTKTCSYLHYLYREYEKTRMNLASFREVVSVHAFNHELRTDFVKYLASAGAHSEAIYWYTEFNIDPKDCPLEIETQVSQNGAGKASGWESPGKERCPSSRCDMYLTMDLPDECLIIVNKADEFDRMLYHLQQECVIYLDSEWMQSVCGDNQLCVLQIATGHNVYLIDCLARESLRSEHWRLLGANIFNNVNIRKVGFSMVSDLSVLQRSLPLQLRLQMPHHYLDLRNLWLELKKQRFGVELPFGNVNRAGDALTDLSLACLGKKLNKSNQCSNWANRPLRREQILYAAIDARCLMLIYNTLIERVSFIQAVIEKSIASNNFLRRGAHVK
# B1: Piwi, endogenous in ovaries (protein, UniProt Q9VKM1 1-843)
# chain: MADDQGRGRRRPLNEDDSSTSRGSGDGPRVKVFRGSSSGDPRADPRIEASRERRALEEAPRREGGPTERKPWGDQYDYLNTRPAELVSKKGTDGVPVMLQTNFFRLKTKPEWRIVHYHVEFEPSIENPRVRMGVLSNHANLLGSGYLFDGLQLFTTRKFEQEITVLSGKSKLDIEYKISIKFVGFISCAEPRFLQVLNLILRRSMKGLNLELVGRNLFDPRAKIEIREFKMELWPGYETSIRQHEKDILLGTEITHKVMRTETIYDIMRRCSHNPARHQDEVRVNVLDLIVLTDYNNRTYRINDVDFGQTPKSTFSCKGRDISFVEYYLTKYNIRIRDHNQPLLISKNRDKALKTNASELVVLIPELCRVTGLNAEMRSNFQLMRAMSSYTRMNPKQRTDRLRAFNHRLQNTPESVKVLRDWNMELDKNVTEVQGRIIGQQNIVFHNGKVPAGENADWQRHFRDQRMLTTPSDGLDRWAVIAPQRNSHELRTLLDSLYRAASGMGLRIRSPQEFIIYDDRTGTYVRAMDDCVRSDPKLILCLVPNDNAERYSSIKKRGYVDRAVPTQVVTLKTTKNRSLMSIATKIAIQLNCKLGYTPWMIELPLSGLMTIGFDIAKSTRDRKRAYGALIASMDLQQNSTYFSTVTECSAFDVLANTLWPMIAKALRQYQHEHRKLPSRIVFYRDGVSSGSLKQLFEFEVKDIIEKLKTEYARVQLSPPQLAYIVVTRSMNTRFFLNGQNPPPGTIVDDVITLPERYDFYLVSQQVRQGTVSPTSYNVLYSSMGLSPEKMQKLTYKMCHLYYNWSGTTRVPAVCQYAKKLATLVGTNLHSIPQNALEKKFYYL
# B2: Hen1, endogenous in ovaries (enzyme, UniProt Q7K175 1-391)
# chain: MFSHKFICGSLTKMTETGITFDPPVYEQRYCATIQILEDARWKDQIKKVVEFGCAEMRFFQLMRRIETIEHIGLVDIDKSLLMRNLTSVNPLVSDYIRSRASPLKVQILQGNVADSSEELRDTDAVIAIELIEHVYDDVLAKIPVNIFGFMQPKLVVFSTPNSDFNVIFTRFNPLLPNGFRHEDHKFEWSRDEFKNWCLGIVEKYPNYMFSLTGVGNPPKEYESVGPVSQIAIFVRKDMLEMQLVNPLVSKPNIDKESIPYKLIHTVEYPFYVDTRTEKEKLWTEVQIELQRFKRQFESSEIEEGTYQDTCNMPIAFLLDRLEHVGATKERIEELLLENNLTVENECVLIVSSDQESEWSDPYKFSDRSSQDDALVDQEQEEERWDQGPES
# B3: Papi, endogenous in ovaries (protein, UniProt Q9VQ91 1-576)
# chain: MLRNTPFGATPTYKLLLGFGLCSLGGAMLYAYFKTRNDEEEADSGGQRPASGIRGQTEEQKPQKEVCLKIVVDNEHVPLIMGRGGSNIKLIEEKTLAKIRLRDKDSGHKFCDISGVPDAVKAARALLIKEIERAPVVKVELQVPQRLASKINGRGGELLQEIRSSSLAKLNIDLNGRNGKAKITIIGNQKQVNIARKMLDDQIEEDEELVRSMEEVEQRREPRRSPTNSIASSMYSSQTSLSSHTQPRDKLMASKGEGKPMEVYVSAVASPTKFWVQLIGPQSKKLDSMVQEMTSYYSSAENRAKHVLTAPYVGQIVAAVFKFDEKWYRAEIVDIMPNQYNPKEQVIDLYFVDYGDSEYISPADICELRTDFLTLRFQAVECFLANVKSTIQTEPITWPKSSIAKFEELTEVAHWRKLIARVVTYKERPRATTAVSAAAKEGTPLPGVELFDPADNSELNIADLMITQGFALPLDDSYPVRSRSSTPSSNSDSTIEELCVSNPVTPLTPHSPMSMSIDVDSITQAENEHLAQQLQHLQHKLNGNDIKNINPAKLTATDLENGNNNNASTTNGASAH
# Biological target: Nibbler (Nbr), endogenous, with a Myc tag knocked in (Nbr^KI-Myc) (Drosophila melanogaster (endogenous in fly ovaries)) (UniProt Q9VIF1)
# Assay: affinity purification with mass spectrometry; anti-c-Myc agarose beads on lysate of 400 ovaries of Nbr^KI-Myc against control flies; 2 h at 4°C, washed with TBS; LC-MS/MS; filter: more than ten peptides and PSM more than 5-fold enriched
row,binding,Binder
1,binds,B1
2,no binding,B2
3,no binding,B3

# No constants are given. Whether binding was seen depends on the method and setting. In cells and extracts the contact can be indirect. Here binding means that the protein was enriched with, or labelled near, the bait; the list need not be complete. A no says only that the protein was not detected with the bait.
